Data source: PubChem BioAssay AID652243 (Drosophila RNAi Screening Center, 2013)

Purpose: 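Fly genes required for human androgen receptor driven transcription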 (primary screen)
System: Drosophila S2R+ cells
Reagent: long dsRNA against Drosophila genes
Timing: 72 h (48 h, then 24 h hormone)
Challenge: synthetic androgen R1881 at 10 nM for 24 h
Read-out: 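Firefly light from an androgen-responsive reporter and Renilla control light per well, raw and unnormalised, for each of two replicates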
Reading the numbers: firefly reporter light: higher = more light from androgen-responsive reporter; Renilla control light: higher = more constitutive control signal (cell number, transfection)
Call rule: 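Hit when the log firefly-to-Renilla ratio dropped or increased by a fixed fold versus the mean of GFP or LacZ controls across duplicate plates; lowering cut given as 1.5 and as 3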
Calls: active = hit: reporter lowered or raised; inactive = no hit
The deposit covers about 24,000 reagents; shown is an unselected part of those that have a named target and a result. Over the whole deposit, 246 (1%) got an active call. 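Plates not normalised; calls are printed but the firefly/Renilla ratio behind them is not deposited; fold cut for lowering reported inconsistently.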 The raw values are shown without normalisation. Entries without a mark were called inactive. The record does not give: the amount of reagent.

| predicted target | DRSC id | firefly reporter light, replicate 1 | firefly reporter light, replicate 2 | Renilla control light, replicate 1 | Renilla control light, replicate 2 |
| --- | --- | --- | --- | --- | --- |
| CG3823 (GeneID 31573) | DRSC18325 | 1.63e5 | 2.17e5 | 2.61e6 | 2.17e6 |
| CG3823 (GeneID 31573) | DRSC26025 | 3.05e5 | 3.11e5 | 5.51e5 | 4.09e5 |
| MFS17 (GeneID 3354861) | DRSC37735 | 1.05e6 | 9.33e5 | 2.60e6 | 2.89e6 |
| mRpS30 (GeneID 32530) | DRSC20107 | 1.12e5 | 1.12e5 | 7.44e5 | 5.53e5 |
| CG8569 (GeneID 36376) | DRSC07214 | 5.96e5 | 4.60e5 | 1.08e6 | 1.09e6 |
| Gcat (GeneID 39333) | DRSC09719 | 2.26e5 | 2.11e5 | 2.17e6 | 2.28e6 |
| Gcat (GeneID 39333) | DRSC26093 | 4.65e5 | 4.14e5 | 7.69e5 | 9.12e5 |
| ZC3H3 (GeneID 38968) | DRSC10696 | 22824 | 21956 | 2.87e5 | 1.95e5 |
| ZC3H3 (GeneID 38968) | DRSC28763 | 1.33e5 | 96455 | 4.80e5 | 4.58e5 |
| ZC3H3 (GeneID 38968) | DRSC39048 | 72002 | 92672 | 3.60e5 | 3.47e5 |
| Dp1 (GeneID 37116) | DRSC07403 | 4.15e5 | 4.86e5 | 4.93e5 | 4.50e5 |
| t-Grip91 (GeneID 34931) | DRSC01506 | 2.28e5 | 2.79e5 | 6.24e5 | 4.40e5 |
| CG9265 (GeneID 35369) | DRSC03178 | 1.45e5 | 1.26e5 | 1.51e6 | 1.02e6 |
| CG9265 (GeneID 35369) | DRSC03179 | 1.75e5 | 2.35e5 | 1.46e6 | 1.86e6 |
| CG2691 (GeneID 32320) | DRSC19866 | 89933 | 70986 | 6.51e5 | 5.93e5 |

The list goes on; the last 2 above are carried over.
| predicted target | DRSC id | firefly reporter light, replicate 1 | firefly reporter light, replicate 2 | Renilla control light, replicate 1 | Renilla control light, replicate 2 |
| --- | --- | --- | --- | --- | --- |
| CG9265 (GeneID 35369) | DRSC03179 | 1.75e5 | 2.35e5 | 1.46e6 | 1.86e6 |
| CG2691 (GeneID 32320) | DRSC19866 | 89933 | 70986 | 6.51e5 | 5.93e5 |
| CG32668 (GeneID 318147) | DRSC18879 | 1.02e6 | 5.33e5 | 1.92e6 | 1.04e6 |
| Tango4 (GeneID 32168) | DRSC19786 | 56018 | 62948 | 7.11e5 | 7.10e5 |
| Tango4 (GeneID 32168) | DRSC23475 | 5.59e5 | 6.22e5 | 9.93e5 | 9.94e5 |
| CG4269 (GeneID 37578) | DRSC04457 | 2.26e5 | 2.91e5 | 1.82e6 | 2.52e6 |
| CG31524 (GeneID 318781) | DRSC22014 | 6.50e5 | 5.87e5 | 2.25e6 | 1.79e6 |
| CG31524 (GeneID 318781) | DRSC28999 | 9.11e5 | 5.72e5 | 1.26e6 | 1.07e6 |
| sisA (GeneID 32068) | DRSC20374 | 1.26e5 | 1.08e5 | 2.51e6 | 2.62e6 |
| sisA (GeneID 32068) | DRSC29331 | 4.60e5 | 4.65e5 | 1.44e6 | 1.44e6 |
| Ahcy (GeneID 32471) | DRSC19329 | 1.10e5 | 83529 | 4.79e5 | 4.27e5 |
| Ahcy (GeneID 32471) | DRSC27304 | 4.19e5 | 3.01e5 | 8.80e5 | 6.68e5 |
